Series [1] addresses T1, NF-ATp (renatured from SDS gel, Ar-5 hypotonic extract) (Mus musculus) (UniProt Q60591).
T1 sequence (limits assumed): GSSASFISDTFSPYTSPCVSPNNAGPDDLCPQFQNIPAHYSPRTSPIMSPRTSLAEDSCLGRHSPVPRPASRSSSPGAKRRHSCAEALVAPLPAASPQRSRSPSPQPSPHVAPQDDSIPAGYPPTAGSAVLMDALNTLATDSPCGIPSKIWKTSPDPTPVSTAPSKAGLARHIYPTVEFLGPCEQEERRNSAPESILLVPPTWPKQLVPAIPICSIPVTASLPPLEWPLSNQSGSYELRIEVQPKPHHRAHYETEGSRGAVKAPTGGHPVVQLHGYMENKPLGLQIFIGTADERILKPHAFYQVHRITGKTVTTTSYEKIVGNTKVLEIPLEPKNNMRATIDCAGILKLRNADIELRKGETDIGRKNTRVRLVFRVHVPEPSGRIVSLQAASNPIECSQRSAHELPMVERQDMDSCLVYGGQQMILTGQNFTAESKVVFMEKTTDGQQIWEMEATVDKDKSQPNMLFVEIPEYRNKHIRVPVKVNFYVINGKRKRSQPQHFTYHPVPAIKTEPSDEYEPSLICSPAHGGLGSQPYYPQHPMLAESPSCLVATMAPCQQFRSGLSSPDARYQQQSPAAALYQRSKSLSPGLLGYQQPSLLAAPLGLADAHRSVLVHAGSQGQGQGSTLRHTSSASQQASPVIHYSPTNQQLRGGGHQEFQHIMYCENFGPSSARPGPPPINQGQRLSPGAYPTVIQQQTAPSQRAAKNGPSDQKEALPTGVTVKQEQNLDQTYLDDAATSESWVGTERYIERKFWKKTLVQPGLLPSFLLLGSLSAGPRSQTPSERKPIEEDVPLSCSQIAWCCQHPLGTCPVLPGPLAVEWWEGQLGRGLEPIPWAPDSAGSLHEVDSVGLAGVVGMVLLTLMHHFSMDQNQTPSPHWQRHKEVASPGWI
Kind of series: competition with a labelled probe. The settings on record: 200-fold excess, protein in an extract.

For series [2], the target named is T2, NF-ATp (renatured from SDS gel, nuclear extract of stimulated Ar-5) (Mus musculus) (UniProt Q60591).
T2 sequence (limits assumed): T1 sequence (limits assumed)
Kind of series: competition with a labelled probe. The settings on record: 200-fold excess, protein in an extract.

The target of series [3] is T3, NF-ATp XS (464-aa recombinant fragment of murine NF-ATp) (Mus musculus) (UniProt Q60591).
T3 sequence: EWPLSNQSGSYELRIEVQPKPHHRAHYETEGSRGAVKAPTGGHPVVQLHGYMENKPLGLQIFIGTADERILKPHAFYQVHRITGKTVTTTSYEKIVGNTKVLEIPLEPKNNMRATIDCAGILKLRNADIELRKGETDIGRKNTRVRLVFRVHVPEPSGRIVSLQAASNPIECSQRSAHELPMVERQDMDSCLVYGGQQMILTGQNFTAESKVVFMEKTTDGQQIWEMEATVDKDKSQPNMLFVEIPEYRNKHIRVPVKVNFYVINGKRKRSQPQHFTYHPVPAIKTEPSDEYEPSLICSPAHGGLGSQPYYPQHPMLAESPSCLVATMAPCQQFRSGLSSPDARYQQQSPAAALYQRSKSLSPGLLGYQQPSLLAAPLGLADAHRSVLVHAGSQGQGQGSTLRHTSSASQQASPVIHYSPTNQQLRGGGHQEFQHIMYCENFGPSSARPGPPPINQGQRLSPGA
In words: competition with a labelled probe. The settings on record: 200-fold excess competes with intermediate efficiency; purified recombinant protein.

The target in series [4] is T1, NF-ATp (renatured from SDS gel, Ar-5 hypotonic extract) (Mus musculus). In words: EMSA. The settings on record: poly(dI:dC), 84 mM NaCl, 20 mM KCl; fully self-competed; protein in an extract; label: 32P.
The target in series [5] is T2, NF-ATp (renatured from SDS gel, nuclear extract of stimulated Ar-5) (Mus musculus). In words: EMSA. The settings on record: poly(dI:dC), 84 mM NaCl, 20 mM KCl; fully self-competed; protein in an extract; label: 32P. For orientation: In EMSA bound probe runs differently from free probe, usually more slowly.

The results in this text go back to US5656452A, “NF-ATp, ' a T lymphocyte DNA-binding protein” (President and Fellows of Harvard College, priority 1993, dated 1997).

For part of these data: A weaker result is weaker than the reference pair of the same experiment. Where a protein sequence is shown, tags need not be part of it. For part of these data: At least one result comes from cells or an extract, where the contact may be indirect. For part of these data: No signal at the amounts used counts as a negative.

Take “GCCCAAAGAGGAAAATGGACTTCATACAG (double strand) [M2]”: the binding result in series [1] (partial competition), in series [2] (partial competition) and in series [3] was “binds more weakly” throughout.

With “GCCCAAAGACCTTAATTTGTTTCATACAG (double strand) [M3]”, the binding result in series [1] (no competition) and in series [2] (no competition) was “no binding” in each case.

With “GCCCAAAGAGGAAAATTTGTTTATATCAG (double strand) [M1]”, the binding result in series [1] (complete competition) and in series [2] (complete competition) was “binds” each time.

With “GCCCAAAGAGGAAAATTTGTTTCATACAG (double strand)”, the binding result in series [4] and in series [5] was “binds” throughout.
